Laboratory results taken from patent US20260042731A1, “(2,4-DICHLOROPHENOXY)ACETIC ACID ANALOGS” (CORTEVA AGRISCIENCE LLC, priority 2022, published 2026).
Values joined by “and” are separate entries in the source; they are usually repeats but may differ in a detail not shown here. Equal entries are not always repeated. At least one read-out could not be matched to a standard name with certainty.

Legend:
Format in all cases: in vivo
[1] = system: Common Lambsquarters (CHEAL); assay: Greenhouse post-emergence mixture trials, percent visual control; conditions: 21 DAA
Corn (ZEAMX) = assay: as above; conditions: 21 DAA
Velvetleaf (ABUTH) = assay: as above; conditions: 21 DAA
Horseweed (ERICA) = assay: as above; conditions: 21 DAA
[2] = system: glyphosate resistant Conyza canadensis (L.) (ERICA), horseweed; assay: Postemergence herbicide evaluation, growth of Conyza canadensis (ERICA); conditions: 560 g ae/ha, percent reduction in plant size vs untreated control
[3] = system: Chenopodium album (CHEAL), common lambsquarters; assay: Postemergence herbicide evaluation, growth of Chenopodium album (CHEAL); conditions: 560 g ae/ha, percent reduction in plant size vs untreated control
[4] = system: Abutilon theophrasti (ABUTH), velvetleaf; assay: Postemergence herbicide evaluation, growth of Abutilon theophrasti (ABUTH); conditions: 560 g ae/ha, percent reduction in plant size vs untreated control
[5] = system: weeds ABUTH, AMATA, AMBEL, CHEAL, ERICA; assay: Postemergence herbicide evaluation, overall average % weed control across ABUTH, AMATA, AMBEL, CHEAL and ERICA; conditions: 560 g ae/ha, average over five weeds
[6] = system: Amaranthus rudis (AMATA), tall water hemp; assay: Postemergence herbicide evaluation, growth of Amaranthus rudis (AMATA); conditions: 560 g ae/ha, percent reduction in plant size vs untreated control
[7] = Trial 2 Trt 13: B2 0 g ae/ha, Diclosulam 25 g ai or ae/ha alone
[8] = Trial 2 Trt 13, B2 0 g ae/ha, Diclosulam 25 g ai or ae/ha alone
[9] = Trial 2 Trt 16, B2 0 g ae/ha, Diclosulam 35 g ai or ae/ha alone
[10] = Trial 1, Trt 21, B2 0 g ae/ha, Sulfentrazone 210 g ai or ae/ha alone
[11] = Trial 1, Trt 25, B2 0 g ae/ha, Sulfentrazone 420 g ai or ae/ha alone
[12] = Trial 2 Trt 19, B2 0 g ae/ha, Arylex 5 g ai or ae/ha alone
[13] = Trial 2 Trt 22, B2 0 g ae/ha, Arylex 6.5 g ai or ae/ha alone

Structure (SMILES): CCOc1nc(F)cc2nc(S(=O)(=O)Nc3c(Cl)cccc3Cl)nn12 [Diclosulam, reference compound]
- % Control [1, 7]: 30% and 50%
- % Control (Corn (ZEAMX); [8]): 85%
- % Control (Corn (ZEAMX); [9]): 90% and 85%
- % Control (Velvetleaf (ABUTH); [8]): 98%
- % Control (Velvetleaf (ABUTH); [9]): 100%
- % Control (Horseweed (ERICA); [7]): 100%
- % Control (Horseweed (ERICA); [9]): 100%

Structure (SMILES): O=C(COc1ccc(Cl)cc1Cl)NOCCc1ccccc1 [Compound D18]
- Ave. ERICA ([2]; 7 DAA): 82.5%
- Ave. ERICA ([2]; 14 DAA): 100%
- Ave. ERICA ([2]; 21 DAA): 100%
- Ave. CHEAL ([3]; 7 DAA): 77.5%
- Ave. CHEAL ([3]; 14 DAA): 94%
- AVE. ABUTH ([4]; 7 DAA): 67.5%
- AVE. ABUTH ([4]; 14 DAA): 97.5%
- AVE. ABUTH ([4]; 21 DAA): 100%
- Overall Ave % Weed Control ([5]; 7 DAA): 79.9%
- Overall Ave % Weed Control ([5]; 14 DAA): 95.5%
- Overall Ave % Weed Control ([5]; 21 DAA): 97.5%
- Ave. AMATA ([6]; 7 DAA): 89.5%
- Ave. AMATA ([6]; 14 DAA): 93.5%
- Ave. AMATA ([6]; 21 DAA): 87.5%

Structure (SMILES): Cc1nn(-c2cc(NS(C)(=O)=O)c(Cl)cc2Cl)c(=O)n1C(F)F [Sulfentrazone, N-[2,4-dichloro-5-[4-(difluoromethyl)-4,5-dihydro-3-methyl-5-oxo-1H-1,2,4-triazol-1-yl]phenyl]-methane-sulfonamide, reference compound]
- % Control [1, 10]: 99%
- % Control [1, 11]: 98% and 100%
- % Control ([1]; Trial Bridge 3, Sulfentrazone 140 g ai/ha alone (B2 rate 0)): 100%
- % Control ([1]; Trial Bridge 3, Sulfentrazone 210 g ai/ha alone (B2 rate 0)): 100%
- % Control (Corn (ZEAMX); Sulfentrazone 140 g ai or ae/ha alone (B2 rate 0), Trial Bridge 3): 50%
- % Control (Corn (ZEAMX); Sulfentrazone 210 g ai or ae/ha alone (B2 rate 0), Trial Bridge 3): 60% and 50%
- % Control (Corn (ZEAMX); Sulfentrazone 420 g ai or ae/ha alone (B2 rate 0), Trial Bridge 3): 75% and 40% and 60%
- % Control (Corn (ZEAMX); Trial 1 Trt 25, B2 0 g ae/ha, Sulfentrazone 420 g ai or ae/ha alone): 30%
- % Control (Velvetleaf (ABUTH); Sulfentrazone 140 g ai/ha alone (compound rate 0 g ae/ha), Trial Bridge 3): 100%
- % Control (Velvetleaf (ABUTH); Sulfentrazone 420 g ai/ha alone (compound rate 0 g ae/ha), Trial Bridge 3): 70% and 100%
- % Control (Velvetleaf (ABUTH); Trial 1, Trt 17, B2 0 g ae/ha, Sulfentrazone 140 g ai or ae/ha alone): 45% and 78% and 80%
- % Control (Velvetleaf (ABUTH); [10]): 65% and 80% and 99%
- % Control (Velvetleaf (ABUTH); [11]): 99% and 100%
- % Control (Horseweed (ERICA); Trial 1 Trt 17, B2 0 g ae/ha, Sulfentrazone 140 g ai or ae/ha alone): 10% and 15%
- % Control (Horseweed (ERICA); Trial 1 Trt 21, B2 0 g ae/ha, Sulfentrazone 210 g ai or ae/ha alone): 15% and 10%

Structure (SMILES): COc1ccc(CONC(=O)COc2ccc(Cl)cc2Cl)cc1 [Compound D20]
- Ave. ERICA ([2]; 14 DAA): 97.5%
- Ave. ERICA ([2]; 21 DAA): 99.5%
- Ave. CHEAL ([3]; 14 DAA): 95%
- Ave. CHEAL ([3]; 21 DAA): 92.5%
- AVE. ABUTH ([4]; 7 DAA): 37.5%
- AVE. ABUTH ([4]; 14 DAA): 62.5%
- AVE. ABUTH ([4]; 21 DAA): 67.5%
- Overall Ave % Weed Control ([5]; 7 DAA): 71.5%
- Overall Ave % Weed Control ([5]; 14 DAA): 83.3%
- Overall Ave % Weed Control ([5]; 21 DAA): 79.6%
- Ave. AMATA ([6]; 7 DAA): 80%
- Ave. AMATA ([6]; 14 DAA): 89%

Structure (SMILES): CC(C)N(C)S(=O)(=O)NC(=O)c1cc(-n2c(=O)cc(C(F)(F)F)n(C)c2=O)c(F)cc1Cl [Saflufenacil, reference compound]
- % Control ([1]; Trial 1, Trt 5, B2 0 g ae/ha, Saflufenacil 25 g ai or ae/ha alone): 95% and 100% and 75%
- % Control ([1]; Trial 1, Trt 9, B2 0 g ae/ha, Saflufenacil 50 g ai or ae/ha alone): 98% and 100%
- % Control ([1]; Trial 1, Trt 13, B2 0 g ae/ha, Saflufenacil 75 g ai or ae/ha alone): 95% and 100%
- % Control (Corn (ZEAMX); Trial 1 Trt 9, B2 0 g ae/ha, Saflufenacil 50 g ai or ae/ha alone): 45% and 35%
- % Control (Corn (ZEAMX); Trial 1 Trt 13, B2 0 g ae/ha, Saflufenacil 75 g ai or ae/ha alone): 50%

Structure (SMILES): CS(=O)(=O)c1ccc(C(=O)C2C(=O)CCCC2=O)c([N+](=O)[O-])c1 [Mesotrione, 2-[4-(methylsulfonyl)-2-nitrobenzoyl]-1,3-cyclohexanedione, reference compound]
- % Control (Corn (ZEAMX); Trial 2 Trt 25, B2 0 g ae/ha, Mesotrione 75 g ai or ae/ha alone): 3% and 0%
- % Control (Corn (ZEAMX); Trial 2 Trt 28, B2 0 g ae/ha, Mesotrione 150 g ai or ae/ha alone): 0% and 5%
- % Control (Corn (ZEAMX); Trial Bridge 1, Mesotrione 150 g ai or ae/ha alone (compound rate 0), single replicate): 0% (2×) and 5%

Structure (SMILES): COC(=O)c1nc(-c2ccc(Cl)c(OC)c2F)cc(N)c1Cl [Arylex, halauxifen-methyl, reference compound]
- % Control (Corn (ZEAMX); [12]): 65%
- % Control (Corn (ZEAMX); Trial 2 Trt 19, B2 0 g ae/ha, Arylex 5 g ai or ae/ha alone, listed as Aryles): 65%
- % Control (Corn (ZEAMX); [13]): 70% and 65%
- % Control (Corn (ZEAMX); Trial Bridge 1, Arylex 5 g ai or ae/ha alone (compound rate 0), single replicate): 65%
- % Control (Corn (ZEAMX); Trial Bridge 1, Arylex 5 g ai or ae/ha alone (compound rate 0), single replicate, listed as Arvlex): 60%
- % Control (Horseweed (ERICA); [12]): 95%
- % Control (Horseweed (ERICA); [13]): 99% and 95% and 97%
